Experimental data as given in patent US20130028959A1, “Liposomes for Preventing the Spread of HIV” (Massachusetts Institute of Technology, priority 2009, published 2013).
At least one structure is not confirmed: it was looked up by name or label, or the drawing left a doubt.

Columns and labels:
[1] = Hydrophobicity of lipids, from number of hydrophobic tails; type: physicochemical; parameters: key to the marks not given beside the values; details: derived from the number of hydrophobic tails
[2] = Surface charge of lipids used to make liposomes; type: physicochemical; details: lipid used to make liposomes

Q: What does the source list for CCCCCCCC/C=C\CCCCCCCC(=O)OC[C@H](COP(=O)(O)OCC(O)CO)OC(=O)CCCCCCC/C=C\CCCCCCCC (some centres unmarked) [Dioleoylphosphatidylglycerol (DOPG), Dioleoylphosphatidylglycerol]?
A: Degree of hydrophobicity [1]: ++; Actual Charge [2]: −
